PubChem BioAssay AID248 (DTP/NCI, 2004)
The list shows only some results of the screen, not a fair sample: it gathers tests that were run many times, whatever their T/C, doses with no T/C, and many T/C values between a quarter and a half above the control. Other doses and runs of a compound stand elsewhere. T/C: endpoint of the treated group in % of that of the vehicle group. Some doses have a count of surviving animals in place of a T/C: the source holds a T/C of zero for them, seemingly a mark for toxic or unscored doses. Some survivor counts are full or nearly so, which does not show that the dose was tolerated: survival well below the control is almost never listed, so the zero probably covers shortened survival too. Counts of survivors are from the toxicity check (mostly the fifth day) where no day follows; animals may have died later. Schedules are NCI's codes, taken here to give the interval after Q, in days (D) or hours (H), and the number of doses after X. Some schedule codes hold Z or #, which are not explained here. Some molecules as drawn cover several salts, stereoisomers or complexes of the source; a dose is that of the sample tested. Where survival is the endpoint, the PubChem record calls one and a half times the control and up active, and a quarter to a half above the control has no call in these data; cut-offs in other NCI protocols can differ.

Tested on: L1210 leukemia ip in BDF1 mice, survival T/C
Experiment: NCI In Vivo Anticancer Drug Screen. Data for tumor model L1210 Leukemia (intraperitoneal) in B6D2F1 (BDF1) mice
Conditions: T/C endpoint: mean survival time, higher T/C = longer survival
[1] = dose: 200.0 mg/kg/injection, schedule: Q01DX009 (ip), vehicle: Klucel (hydroxypropylcellulose) (HPC)
[2] = dose: 400.0 mg/kg/injection, schedule: Q01DX009 (ip), vehicle: Klucel (hydroxypropylcellulose) (HPC)
[3] = dose: 200.0 mg/kg/injection, schedule: Q04DX003 (ip), vehicle: saline
[4] = dose: 400.0 mg/kg/injection, schedule: Q04DX003 (ip), vehicle: saline
[5] = dose: 200.0 mg/kg/injection, schedule: Q04DX003 (ip), vehicle: saline with Tween-80
[6] = dose: 400.0 mg/kg/injection, schedule: Q04DX003 (ip), vehicle: saline with Tween-80
[7] = dose: 400.0 mg/kg/injection, schedule: Q01DX001 (ip), vehicle: carboxymethylcellulose (CMC)
[8] = dose: 150.0 mg/kg/injection, schedule: Q01DX001 (ip), vehicle: saline
[9] = dose: 300.0 mg/kg/injection, schedule: Q01DX001 (ip), vehicle: saline

O=C(O)C1CCC2(CCCCC2)CC1
survivor count (dose: 400.0 mg/kg/injection, schedule: Q01DX009 (ip), vehicle: water): 3 of 6

C=C(C)COc1c(Cl)cc(Cl)cc1C=Nc1ccccc1
survivor count (dose: 400.0 mg/kg/injection, schedule: Q01DX001 (ip), vehicle: saline with Tween-80): 6 of 6

C=CCNC(=S)Nc1cccc(Cl)c1C
survivor count (dose: 100.0 mg/kg/injection, schedule: Q01DX009 (ip), vehicle: Klucel (hydroxypropylcellulose) (HPC)): 6 of 6
survivor count [1]: 6 of 6
survivor count [2]: 0 of 6

COCCN1CCC(CN2c3ccccc3Sc3ccccc32)C1 (stereo not given)
survivor count [3]: 0 of 6
survivor count [4]: 0 of 6

CCCCCCCCCCCCCCCCCCSCCO
survivor count (dose: 200.0 mg/kg/injection, schedule: Q04DX003 (ip), vehicle: Klucel (hydroxypropylcellulose) (HPC)): 6 of 6

O=NN(CCCl)C(=O)Nc1ccc(Cn2ccc(=O)[nH]c2=O)cc1
T/C (dose: 16.0 mg/kg/injection, schedule: Q01DX001 (ip), vehicle: carboxymethylcellulose (CMC)): 138 % of control
T/C (dose: 93.0 mg/kg/injection, schedule: Q01DX001 (ip), vehicle: carboxymethylcellulose (CMC)): 128 % of control
survivor count (dose: 250.0 mg/kg/injection, schedule: Q01DX001 (ip), vehicle: carboxymethylcellulose (CMC)): 4 of 6
survivor count (dose: 375.0 mg/kg/injection, schedule: Q01DX001 (ip), vehicle: carboxymethylcellulose (CMC)): 5 of 6
survivor count (dose: 500.0 mg/kg/injection, schedule: Q01DX001 (ip), vehicle: carboxymethylcellulose (CMC)): 4 of 6
survivor count (dose: 750.0 mg/kg/injection, schedule: Q01DX001 (ip), vehicle: carboxymethylcellulose (CMC)): 5 of 6

COC(=O)/C(=C1/OC(=O)C(c2ccccc2)=C1O)c1ccccc1
survivor count [5]: 1 of 6
survivor count [6]: 1 of 6

NCC(=O)NO
survivor count (dose: 296.0 mg/kg/injection, schedule: Q01DX015 (ip), vehicle: water): 0 of 6
survivor count (dose: 300.0 mg/kg/injection, schedule: Q01DX015 (ip), vehicle: water): 5 of 6
survivor count (dose: 444.0 mg/kg/injection, schedule: Q01DX015 (ip), vehicle: water): 1 of 6
survivor count (dose: 666.0 mg/kg/injection, schedule: Q01DX015 (ip), vehicle: water): 0 of 6
survivor count (dose: 1000.0 mg/kg/injection, schedule: Q01DX015 (ip), vehicle: water): 0 of 6

CCCCN1C(=O)C(=O)N(c2ccccc2C(F)(F)F)C1=O
survivor count [1]: 3 of 3
survivor count [2]: 3 of 3

C1CNCOC1
survivor count [4]: 2 of 6

NCCCn1c2ccccc2c2cnccc21
survivor count (dose: 200.0 mg/kg/injection, schedule: Q01DX009 (ip), vehicle: water): 0 of 6
survivor count (dose: 200.0 mg/kg/injection, schedule: Q04DX003 (ip), vehicle: water): 0 of 6
survivor count (dose: 400.0 mg/kg/injection, schedule: Q04DX003 (ip), vehicle: water): 0 of 6

CN(C)CCC[N+]1([O-])c2ccccc2CCc2ccccc21
survivor count (dose: 150.0 mg/kg/injection, schedule: Q01DX009 (ip), vehicle: saline): 0 of 6
survivor count (dose: 300.0 mg/kg/injection, schedule: Q04DX003 (ip), vehicle: saline): 2 of 4

Clc1ccnc2c1ccc1c(Cl)ccnc12
survivor count (dose: 100.0 mg/kg/injection, schedule: Q01DX001 (ip), vehicle: carboxymethylcellulose (CMC)): 0 of 4
survivor count (dose: 200.0 mg/kg/injection, schedule: Q01DX001 (ip), vehicle: carboxymethylcellulose (CMC)): 0 of 4
survivor count [7]: 0 of 4

Clc1ccc(C(c2cccs2)N2CCNCC2)cc1 (stereo not given)
survivor count (dose: 100.0 mg/kg/injection, schedule: Q01DX009 (ip), vehicle: saline with Tween-80): 3 of 6
survivor count [5]: 0 of 6
survivor count [6]: 0 of 6

COC(=O)C1=C(C(=O)OC)C2C=CC1C1(C)C(=O)N(C)C21C (stereo not given)
survivor count (dose: 150.0 mg/kg/injection, schedule: Q04DX002 (ip), vehicle: Klucel (hydroxypropylcellulose) (HPC)): 3 of 3

CC1CCCCN1C(=O)Nc1cccc(C(F)(F)F)c1 (stereo not given)
survivor count (dose: 100.0 mg/kg/injection, schedule: Q04DX002 (ip), vehicle: gum acacia): 3 of 3
survivor count (dose: 200.0 mg/kg/injection, schedule: Q04DX003 (ip), vehicle: gum acacia): 3 of 3

C[N+](C)(C)CCOC(=O)c1ccccc1CBr
survivor count (dose: 12.5 mg/kg/injection, schedule: Q01DX009 (ip), vehicle: saline): 2 of 6
survivor count (dose: 12.5 mg/kg/injection, schedule: Q04DX002 (ip), vehicle: Klucel (hydroxypropylcellulose) (HPC)): 1 of 3
survivor count (dose: 25.0 mg/kg/injection, schedule: Q04DX002 (ip), vehicle: Klucel (hydroxypropylcellulose) (HPC)): 0 of 3
survivor count (dose: 25.0 mg/kg/injection, schedule: Q04DX003 (ip), vehicle: saline): 0 of 6
survivor count (dose: 50.0 mg/kg/injection, schedule: Q04DX002 (ip), vehicle: Klucel (hydroxypropylcellulose) (HPC)): 0 of 3
survivor count (dose: 100.0 mg/kg/injection, schedule: Q04DX002 (ip), vehicle: Klucel (hydroxypropylcellulose) (HPC)): 0 of 3
survivor count (dose: 200.0 mg/kg/injection, schedule: Q04DX002 (ip), vehicle: Klucel (hydroxypropylcellulose) (HPC)): 0 of 3
survivor count (dose: 400.0 mg/kg/injection, schedule: Q04DX002 (ip), vehicle: Klucel (hydroxypropylcellulose) (HPC)): 0 of 3

CC1=CP(=O)(Oc2ccc([N+](=O)[O-])cc2)CC1 (stereo not given)
survivor count [8]: 0 of 6
survivor count [9]: 0 of 6

Nc1nc(N)c(-c2ccc(Cl)cc2)c(C(=O)O)n1
survivor count (dose: 200.0 mg/kg/injection, schedule: Q01DX009 (ip), vehicle: saline with Tween-80): 4 of 6
survivor count (dose: 400.0 mg/kg/injection, schedule: Q01DX009 (ip), vehicle: saline with Tween-80): 0 of 6

O=C(O)C1CCC2CCCCC2[N-]1.O=C(O)C1CCC2CCCCC2[N-]1.[Cu+2] (stereo not given)
survivor count (dose: 100.0 mg/kg/injection, schedule: Q04DX003 (ip), vehicle: saline): 3 of 6
survivor count [3]: 0 of 6
survivor count [4]: 0 of 6

NCC(O)(c1ccccc1)c1ccccc1
survivor count (dose: 150.0 mg/kg/injection, schedule: Q01DX001 (ip), vehicle: other): 0 of 6
survivor count (dose: 300.0 mg/kg/injection, schedule: Q01DX001 (ip), vehicle: other): 0 of 6

C[N+](C)(C)CCCC[N+](C)(C)C
survivor count (dose: 400.0 mg/kg/injection, schedule: Q01DX009 (ip), vehicle: saline): 1 of 6
survivor count [4]: 4 of 6

O=C1C=CC(=O)N1c1ccc(F)cc1 (tested in a mixture with another compound)
survivor count (dose: 100.0 mg/kg/injection, schedule: Q04DX003 (ip), vehicle: other): 6 of 6
survivor count (dose: 400.0 mg/kg/injection, schedule: Q04DX003 (ip), vehicle: acetone): 6 of 6

Cc1cc(C)nc(NC(=O)Nc2ccccc2)c1
survivor count [1]: 6 of 6

O=[N+]([O-])c1ccc(C=Nc2ccc3c(c2)C(Br)c2ccccc2-3)cc1 (stereo not given)
survivor count (dose: 50.0 mg/kg/injection, schedule: Q01DX Z (ip), vehicle: saline): 6 of 6

CC(CC(=O)c1ccc(F)cc1)N1CCCCC1 (stereo not given)
survivor count [7]: 1 of 4

Cc1cccc(NC(=S)NCCc2ccccn2)c1
survivor count (dose: 400.0 mg/kg/injection, schedule: Q04DX002 (ip), vehicle: saline with Tween-80): 2 of 3

N#CC(N)c1ccccc1 (stereo not given)
survivor count [8]: 0 of 6
survivor count [9]: 1 of 6
